Screening data

Data taken from PubChem BioAssay AID1159506, deposited by NCATS (2015).

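Genome-wide siRNA knockdown in TC32 Ewing sarcoma cells, comparing luciferase light from an NR0B1-promoter reporter with a CMV-promoter reporter 48 hours after transfection. Each siRNA was applied at 20 nM. A z-score of the log NR0B1-over-CMV signal, less the median of siRNAs with the same seed; more negative means a stronger specific loss of the NR0B1 reporter.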

This is part of the screen; most of the strongest results are not listed here. Sequences are the guide (antisense) strand, without overhang.

UUAUUUACAACAGAAUUGG against CITED1 gave seed-corrected z-score -0.1303.
UCAAGUACAAGUCAUCGAG against DCPS gave seed-corrected z-score -0.4201.
UUCAUAUCCUUUGAGGAGC against CAB39L gave seed-corrected z-score -0.2799.
GACUCCAUGACACUUGCAG against SOX9-AS1 gave seed-corrected z-score 2.04.
UUUGGGAUAGGAACAUGGG against PI16 gave seed-corrected z-score 0.01563.
AGAAUGUACAUGUAGGAGU against KCNE3 gave seed-corrected z-score -1.534.
UUCUUGUCCUGAGGCUUCC against SYNE4 gave seed-corrected z-score -0.5762.
ACACCUCACAUGUACUGAC against LOC642852 gave seed-corrected z-score 0.9704.
UUCCAUUAAUCCCUUUUGC against LMOD2 gave seed-corrected z-score -0.9552.
UCACCGUCCACCAUCAGGA against FAM83F gave seed-corrected z-score -0.2399.
UCGGCUUGUAAGUACAUGG against METTL14 gave seed-corrected z-score -0.362.
UAGGAAGUGAGUCUCCAGG against FTL gave seed-corrected z-score 0.712.
AUCAGCAUGAUGAACUCCU against S100A9 gave seed-corrected z-score -1.494.
UUGCAGACUUAUUAAAUCC against BBS12 gave seed-corrected z-score 0.4448.
UAGCAAAACGCUAAUACUG against SPANXN1 gave seed-corrected z-score -0.524.
UUACUAGCAAGCAUGUUCU against HCG27 gave seed-corrected z-score -0.8918.
UUUAUAAGGGCGGUUAUGG against PLAC4 gave seed-corrected z-score 0.2391.
UAGACAUCCAGAAUACACC against SPATA8 gave seed-corrected z-score 0.2668.
AAUGCGAUCGUAGUACUCC against PYGM gave seed-corrected z-score -0.5555.
UGAAUUUCAAUGAAGUGAC against STYXL1 gave seed-corrected z-score -0.6137.
ACCAUUGUACUAUUCUUCC against UBTFL7 gave seed-corrected z-score -1.226.
UUGCUGAAUUCGGUCCUGC against OTUB1 gave seed-corrected z-score -0.03482.
AAACAAACUAAAUCAUCUG against SRP9 gave seed-corrected z-score 0.3221.
UCAAAGACAGGUCACAAGG against TMEM87A gave seed-corrected z-score -0.5195.
UAUAAUAUUUCAGGAGAGC against RPS27AP5 gave seed-corrected z-score 1.146.
UUUAGAGAAGAUGCGUUCC against PKN3 gave seed-corrected z-score 0.3108.
UCGCUGAAUCGAGUGGAGG against MMP28 gave seed-corrected z-score -0.8625.
UUAGUAUGCAGCUCAACGG against CA3 gave seed-corrected z-score -0.2524.
AAAAUUGUAGUGGGCAAGC against TARS2 gave seed-corrected z-score 0.3756.
AAAGCCUUUACUGAGGUCC against TMEM150B gave seed-corrected z-score -0.3343.
UGAUGUAUAACGAGAGUGC against ZNF614 gave seed-corrected z-score -0.597.
UUUCUUAUCGUCUGGUUGC against DENND1C gave seed-corrected z-score 0.7154.
UACUUGAUAUUUGAAAGCC against OSCP1 gave seed-corrected z-score 0.2684.
UCAGAGUCAACAACUGGAG against SNX11 gave seed-corrected z-score 0.4972.
UGAUCAAUUGGGAGGAUUC against LSG1 gave seed-corrected z-score -0.2076.
UGUCCUUACAAUCCGAUCG against EML4 gave seed-corrected z-score -1.328.
UAAGCUUACAUAACAAAGC against ZNF771 gave seed-corrected z-score 0.3996.
ACAUAUAACAUAGAUGUCC against TRIM65 gave seed-corrected z-score 0.7417.
UAAUAGAUCACCUCCACGA against RAB6C gave seed-corrected z-score 0.0258.
AUCGUCAAAGGUAAAAGCC against VIPAS39 gave seed-corrected z-score -0.3619.
UUUGUGGUGAUUCAAAUAC against ZNF692 gave seed-corrected z-score -0.8851.
UGACCAAUACGUAUAGCAC against RSL1D1 gave seed-corrected z-score 0.3457.
AGCCUUAUCACAAAGUCUG against GPRC5A gave seed-corrected z-score -1.069.
UAUCUUCAUAGGCUGUUCC against CCDC75P1 gave seed-corrected z-score 3.452.
UGUAAUCAAAGAGUCCACG against BTBD7 gave seed-corrected z-score -0.1148.
UCAUGUUCUGGUGAAUAUC against AP1G1 gave seed-corrected z-score -0.4247.

5 of the entries, repeated:

* ACAUAUAACAUAGAUGUCC against TRIM65 : seed-corrected z-score 0.7417
* UUUGUGGUGAUUCAAAUAC against ZNF692 : seed-corrected z-score -0.8851
* AGAAUGUACAUGUAGGAGU against KCNE3 : seed-corrected z-score -1.534
* UCACCGUCCACCAUCAGGA against FAM83F : seed-corrected z-score -0.2399
* UUUGGGAUAGGAACAUGGG against PI16 : seed-corrected z-score 0.01563